± gives the standard deviation of the averaged measurements. Some of the results follow.
Compound: Nc1nc2c(ncn2[C@@H]2O[C@H](COP(=O)(O)OP(=O)(O)OP(=O)(O)O)[C@@H](O)[C@H]2O)c(=O)[nH]1 [guanosine triphosphate]
Test: NP40-soluble protein abundance relative to vehicle (solubility fold change) (ratio); higher = more soluble protein in presence of GTP
Details: concentration: 0.1mM
In short: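 Data come from three independent experiments in which Dounce-homogenised Jurkat crude lysate was treated at eight concentrations from 0.1 to 10 mM. Treatment ran 10 min at room temperature and then 3 min at 37 °C, after which 0.8% NP40 and benzonase were added for 60 min at 4 °C before ultracentrifugation. The supernatant underwent TMT labelling and LC-MS/MS, and vsn-normalised intensities were expressed as fold change against the detergent-processed vehicle in each replicate.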

Amino acid sequences for entries named in this document (tags omitted). A change or cut given only in a name is not applied to a line headed by its entry.
UniProt Q9NQ88: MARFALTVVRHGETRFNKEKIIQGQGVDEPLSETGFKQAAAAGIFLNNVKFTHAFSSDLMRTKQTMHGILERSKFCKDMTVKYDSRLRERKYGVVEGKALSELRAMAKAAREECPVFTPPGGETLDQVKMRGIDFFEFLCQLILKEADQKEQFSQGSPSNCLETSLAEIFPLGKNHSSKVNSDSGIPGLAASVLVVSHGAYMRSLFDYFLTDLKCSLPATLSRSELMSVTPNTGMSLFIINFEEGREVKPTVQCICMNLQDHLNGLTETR
UniProt Q9HCE1: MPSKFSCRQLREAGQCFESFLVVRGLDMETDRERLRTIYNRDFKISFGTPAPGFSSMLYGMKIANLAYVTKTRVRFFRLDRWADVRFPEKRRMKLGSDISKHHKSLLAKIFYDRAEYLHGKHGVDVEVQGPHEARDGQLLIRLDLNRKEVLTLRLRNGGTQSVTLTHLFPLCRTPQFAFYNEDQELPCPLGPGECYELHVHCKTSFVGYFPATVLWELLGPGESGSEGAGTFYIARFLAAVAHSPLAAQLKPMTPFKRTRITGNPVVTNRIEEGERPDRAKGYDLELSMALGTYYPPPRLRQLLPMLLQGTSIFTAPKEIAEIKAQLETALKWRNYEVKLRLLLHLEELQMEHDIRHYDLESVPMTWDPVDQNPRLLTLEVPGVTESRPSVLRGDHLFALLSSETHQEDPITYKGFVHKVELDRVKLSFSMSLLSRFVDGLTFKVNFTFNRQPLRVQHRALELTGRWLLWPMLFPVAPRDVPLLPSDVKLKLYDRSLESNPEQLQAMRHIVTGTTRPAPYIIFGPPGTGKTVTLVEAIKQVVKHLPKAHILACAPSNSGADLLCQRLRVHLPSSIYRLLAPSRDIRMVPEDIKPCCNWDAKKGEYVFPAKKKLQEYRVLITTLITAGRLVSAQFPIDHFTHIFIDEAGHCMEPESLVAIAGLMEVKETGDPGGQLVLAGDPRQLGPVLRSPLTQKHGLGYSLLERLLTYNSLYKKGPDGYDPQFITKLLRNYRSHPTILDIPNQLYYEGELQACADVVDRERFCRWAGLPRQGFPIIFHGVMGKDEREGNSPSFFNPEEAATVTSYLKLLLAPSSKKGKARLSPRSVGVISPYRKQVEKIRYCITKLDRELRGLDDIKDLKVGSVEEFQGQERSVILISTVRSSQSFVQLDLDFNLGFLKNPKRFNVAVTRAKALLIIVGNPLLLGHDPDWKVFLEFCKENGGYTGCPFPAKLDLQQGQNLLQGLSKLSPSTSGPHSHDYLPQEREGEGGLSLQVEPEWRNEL
UniProt Q9H9B4: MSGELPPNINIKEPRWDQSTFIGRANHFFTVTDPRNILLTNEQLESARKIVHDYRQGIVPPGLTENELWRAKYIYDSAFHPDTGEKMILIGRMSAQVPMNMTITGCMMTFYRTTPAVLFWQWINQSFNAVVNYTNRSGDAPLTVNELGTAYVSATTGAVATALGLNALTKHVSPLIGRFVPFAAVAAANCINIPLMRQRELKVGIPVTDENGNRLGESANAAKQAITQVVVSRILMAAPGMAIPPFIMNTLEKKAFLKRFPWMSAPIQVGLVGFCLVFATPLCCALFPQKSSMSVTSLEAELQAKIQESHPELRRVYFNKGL
UniProt Q9NQW6: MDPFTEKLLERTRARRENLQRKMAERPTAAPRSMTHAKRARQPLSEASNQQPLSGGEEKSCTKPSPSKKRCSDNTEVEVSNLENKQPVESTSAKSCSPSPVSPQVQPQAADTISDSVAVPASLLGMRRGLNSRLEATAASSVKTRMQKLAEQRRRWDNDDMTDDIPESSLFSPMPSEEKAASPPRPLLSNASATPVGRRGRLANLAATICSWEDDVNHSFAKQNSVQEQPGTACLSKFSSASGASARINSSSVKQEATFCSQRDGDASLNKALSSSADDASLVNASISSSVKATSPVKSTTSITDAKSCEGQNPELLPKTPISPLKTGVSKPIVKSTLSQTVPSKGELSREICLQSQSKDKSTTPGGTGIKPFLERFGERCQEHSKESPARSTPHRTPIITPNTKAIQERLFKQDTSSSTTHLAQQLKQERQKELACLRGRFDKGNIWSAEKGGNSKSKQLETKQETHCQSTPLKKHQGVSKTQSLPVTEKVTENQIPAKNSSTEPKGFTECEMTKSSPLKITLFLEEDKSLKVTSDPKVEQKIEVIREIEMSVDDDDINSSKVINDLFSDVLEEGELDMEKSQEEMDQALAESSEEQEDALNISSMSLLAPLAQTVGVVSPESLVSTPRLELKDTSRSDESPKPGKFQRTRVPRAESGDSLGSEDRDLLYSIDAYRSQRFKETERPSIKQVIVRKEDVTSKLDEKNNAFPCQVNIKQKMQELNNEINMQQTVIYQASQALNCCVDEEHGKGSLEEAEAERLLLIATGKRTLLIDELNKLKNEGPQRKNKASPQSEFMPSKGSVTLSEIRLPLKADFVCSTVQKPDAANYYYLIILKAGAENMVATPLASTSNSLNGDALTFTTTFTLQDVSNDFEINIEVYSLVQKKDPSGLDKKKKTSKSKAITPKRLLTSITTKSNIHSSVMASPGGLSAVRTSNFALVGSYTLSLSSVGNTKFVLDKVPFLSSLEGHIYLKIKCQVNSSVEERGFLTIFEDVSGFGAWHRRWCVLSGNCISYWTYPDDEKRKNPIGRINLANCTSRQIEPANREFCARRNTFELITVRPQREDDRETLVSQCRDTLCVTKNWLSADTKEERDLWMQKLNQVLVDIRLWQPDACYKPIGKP
UniProt Q9C035: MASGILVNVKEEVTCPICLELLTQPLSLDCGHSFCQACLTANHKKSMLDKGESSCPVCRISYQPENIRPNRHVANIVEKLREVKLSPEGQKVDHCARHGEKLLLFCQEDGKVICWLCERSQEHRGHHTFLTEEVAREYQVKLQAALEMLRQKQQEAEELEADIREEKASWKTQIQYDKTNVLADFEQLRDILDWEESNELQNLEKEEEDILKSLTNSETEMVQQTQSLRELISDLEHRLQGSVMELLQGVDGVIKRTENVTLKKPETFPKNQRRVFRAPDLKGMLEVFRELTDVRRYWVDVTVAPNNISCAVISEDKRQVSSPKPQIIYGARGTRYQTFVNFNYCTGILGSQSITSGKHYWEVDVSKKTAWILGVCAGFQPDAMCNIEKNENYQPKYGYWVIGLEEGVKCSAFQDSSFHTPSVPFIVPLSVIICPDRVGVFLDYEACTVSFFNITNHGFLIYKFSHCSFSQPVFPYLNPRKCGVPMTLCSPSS
UniProt Q9NR28: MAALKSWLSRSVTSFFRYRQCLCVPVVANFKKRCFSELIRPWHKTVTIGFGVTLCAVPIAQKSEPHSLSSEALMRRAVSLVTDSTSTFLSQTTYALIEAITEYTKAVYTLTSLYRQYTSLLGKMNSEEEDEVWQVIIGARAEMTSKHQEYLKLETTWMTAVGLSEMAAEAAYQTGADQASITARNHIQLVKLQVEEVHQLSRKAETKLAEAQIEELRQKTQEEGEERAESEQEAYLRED
UniProt Q9H8E8: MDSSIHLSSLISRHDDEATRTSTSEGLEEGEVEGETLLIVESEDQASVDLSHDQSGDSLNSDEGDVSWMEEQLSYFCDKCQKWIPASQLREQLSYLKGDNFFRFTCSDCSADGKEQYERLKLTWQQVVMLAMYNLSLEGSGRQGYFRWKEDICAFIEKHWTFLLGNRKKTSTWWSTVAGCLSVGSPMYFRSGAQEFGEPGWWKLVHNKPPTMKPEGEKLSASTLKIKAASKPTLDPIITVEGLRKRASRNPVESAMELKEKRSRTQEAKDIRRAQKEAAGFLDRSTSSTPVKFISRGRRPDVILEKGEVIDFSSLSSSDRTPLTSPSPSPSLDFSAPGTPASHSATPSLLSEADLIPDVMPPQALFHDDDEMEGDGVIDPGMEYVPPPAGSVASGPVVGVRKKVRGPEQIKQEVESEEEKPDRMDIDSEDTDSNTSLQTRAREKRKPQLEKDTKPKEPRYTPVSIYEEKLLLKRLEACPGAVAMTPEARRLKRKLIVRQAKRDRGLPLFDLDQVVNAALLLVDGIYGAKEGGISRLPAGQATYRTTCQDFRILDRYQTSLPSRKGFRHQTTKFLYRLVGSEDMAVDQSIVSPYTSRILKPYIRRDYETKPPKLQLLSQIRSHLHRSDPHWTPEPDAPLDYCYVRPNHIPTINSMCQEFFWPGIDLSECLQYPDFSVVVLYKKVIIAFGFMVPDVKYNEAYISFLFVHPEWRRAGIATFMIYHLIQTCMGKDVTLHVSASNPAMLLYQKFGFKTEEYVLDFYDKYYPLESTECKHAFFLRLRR
UniProt Q9H3K6: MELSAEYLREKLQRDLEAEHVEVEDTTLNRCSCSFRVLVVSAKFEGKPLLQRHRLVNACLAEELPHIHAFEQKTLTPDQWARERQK
UniProt Q9HCD5: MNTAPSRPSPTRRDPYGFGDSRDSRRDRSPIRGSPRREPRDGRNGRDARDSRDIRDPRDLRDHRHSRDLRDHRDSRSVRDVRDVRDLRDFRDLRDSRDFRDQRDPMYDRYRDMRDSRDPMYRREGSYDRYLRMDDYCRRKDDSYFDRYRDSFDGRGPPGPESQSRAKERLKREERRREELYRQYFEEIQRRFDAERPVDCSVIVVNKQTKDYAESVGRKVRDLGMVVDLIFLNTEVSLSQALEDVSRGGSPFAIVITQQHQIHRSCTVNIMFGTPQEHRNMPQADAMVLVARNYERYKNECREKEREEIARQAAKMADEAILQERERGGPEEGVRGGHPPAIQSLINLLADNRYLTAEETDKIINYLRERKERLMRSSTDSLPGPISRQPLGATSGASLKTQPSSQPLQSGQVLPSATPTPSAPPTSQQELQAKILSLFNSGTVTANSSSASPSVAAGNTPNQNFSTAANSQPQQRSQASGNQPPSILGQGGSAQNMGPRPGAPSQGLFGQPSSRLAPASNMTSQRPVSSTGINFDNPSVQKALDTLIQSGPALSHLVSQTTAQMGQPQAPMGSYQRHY
UniProt Q9H7Z6: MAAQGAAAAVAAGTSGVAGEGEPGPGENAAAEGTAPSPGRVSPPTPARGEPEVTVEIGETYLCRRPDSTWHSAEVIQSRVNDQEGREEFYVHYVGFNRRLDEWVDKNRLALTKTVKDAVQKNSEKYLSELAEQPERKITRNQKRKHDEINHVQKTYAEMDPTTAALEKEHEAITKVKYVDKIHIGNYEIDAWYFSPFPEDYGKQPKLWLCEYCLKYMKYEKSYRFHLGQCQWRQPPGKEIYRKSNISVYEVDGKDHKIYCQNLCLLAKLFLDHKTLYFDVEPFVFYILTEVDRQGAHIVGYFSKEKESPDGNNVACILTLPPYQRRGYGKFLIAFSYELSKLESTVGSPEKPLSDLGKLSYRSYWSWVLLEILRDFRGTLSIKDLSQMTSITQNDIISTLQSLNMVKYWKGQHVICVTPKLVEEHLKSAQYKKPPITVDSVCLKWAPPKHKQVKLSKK
UniProt Q9C0E8: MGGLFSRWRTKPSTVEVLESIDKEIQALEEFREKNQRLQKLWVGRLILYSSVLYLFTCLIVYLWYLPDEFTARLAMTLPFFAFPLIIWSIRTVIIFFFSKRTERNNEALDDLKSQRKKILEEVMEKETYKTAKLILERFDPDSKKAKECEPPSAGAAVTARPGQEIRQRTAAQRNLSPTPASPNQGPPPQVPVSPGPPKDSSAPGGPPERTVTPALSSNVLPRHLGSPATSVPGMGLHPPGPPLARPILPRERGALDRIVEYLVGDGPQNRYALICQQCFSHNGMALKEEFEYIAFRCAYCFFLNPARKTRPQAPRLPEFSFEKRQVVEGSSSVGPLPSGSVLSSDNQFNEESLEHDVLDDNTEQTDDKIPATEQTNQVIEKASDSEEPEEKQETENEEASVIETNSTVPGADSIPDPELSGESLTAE
UniProt Q9H4E7, whole entry: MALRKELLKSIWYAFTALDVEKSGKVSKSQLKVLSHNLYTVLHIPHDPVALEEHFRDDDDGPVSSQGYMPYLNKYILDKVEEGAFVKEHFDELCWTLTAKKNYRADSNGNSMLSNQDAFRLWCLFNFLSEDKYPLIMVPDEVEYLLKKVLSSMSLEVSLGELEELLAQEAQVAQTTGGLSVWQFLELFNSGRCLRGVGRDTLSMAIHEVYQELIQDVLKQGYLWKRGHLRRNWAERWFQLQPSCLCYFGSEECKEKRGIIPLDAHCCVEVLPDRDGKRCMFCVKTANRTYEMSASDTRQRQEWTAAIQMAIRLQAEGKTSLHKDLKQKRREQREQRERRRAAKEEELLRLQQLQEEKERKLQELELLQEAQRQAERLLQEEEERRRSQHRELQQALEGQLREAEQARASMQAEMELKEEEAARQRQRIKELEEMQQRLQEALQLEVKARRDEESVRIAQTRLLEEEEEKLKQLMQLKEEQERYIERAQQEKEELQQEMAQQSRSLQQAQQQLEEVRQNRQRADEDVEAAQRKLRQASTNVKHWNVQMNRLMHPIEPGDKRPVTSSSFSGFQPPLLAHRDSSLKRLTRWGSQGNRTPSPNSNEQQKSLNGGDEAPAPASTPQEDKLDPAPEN
UniProt Q9BZL1: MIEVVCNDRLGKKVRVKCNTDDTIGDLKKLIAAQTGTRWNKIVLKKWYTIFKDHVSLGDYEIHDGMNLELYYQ

Target	NP40-soluble protein abundance
UniProt Q9H6U6 and related entries	1.01 ± 0.025
UniProt Q9NQ88	0.905 ± 0.08
KIF15 (UniProt Q9NS87)	0.975 ± 0.046
JPH1 (UniProt Q9HDC5)	1.15 ± 0.072
UniProt Q9HC38-2|F6TLX2	0.98 ± 0.013
MOV10 (UniProt Q9HCE1)	1.09 ± 0.09
UniProt Q9C0F1	0.971 ± 0.068

Same assay, conditions: concentration: 0.5mM

Target	NP40-soluble protein abundance
RHOF (UniProt Q9HBH0)	1.09 ± 0.1
MRPL44 (UniProt Q9H9J2)	1.12 ± 0.21
FN3KRP (UniProt Q9HA64)	0.991 ± 0.014
SFXN1 (UniProt Q9H9B4)	0.962 ± 0.038
ANLN (UniProt Q9NQW6)	0.967 ± 0.044
EXOSC4 (UniProt Q9NPD3)	0.988 ± 0.057
UniProt Q9C035 and related entries	1.09 ± 0.012
MRPL40 (UniProt Q9NQ50)	1.08 ± 0.22
CENPH (UniProt Q9H3R5)	0.995 ± 0.12
UniProt Q9NR28 and related entries	0.957 ± 0.055
UniProt Q9C0I1 and related entries	1.04 ± 0.098
UniProt Q9H8E8 and related entries	1.03 ± 0.12
SCAF1 (UniProt Q9H7N4)	1.09 ± 0.041
BOLA2 (UniProt Q9H3K6)	0.85 ± 0.12
UniProt Q9NPL8	1.02 ± 0.066
NCOA5 (UniProt Q9HCD5)	1 ± 0.028
UniProt Q9H7Z6	1.06 ± 0.025
KIF13B (UniProt Q9NQT8)	1.02 ± 0.038

Target	NP40-soluble protein abundance
WDR11 (UniProt Q9BZH6)	1.08 ± 0.14
PNN (UniProt Q9H307)	1.09 ± 0.024
LSG1 (UniProt Q9H089)	1.06 ± 0.072
UniProt Q9C0E8 and related entries	0.973 ± 0.1
YTHDC2 (UniProt Q9H6S0)	1.28 ± 0.27
UniProt Q9NPG3 and related entries	1.06 ± 0.091
DEF6 (UniProt Q9H4E7)	0.975 ± 0.053
UniProt Q9BZL1	0.9743 ± 0.0013
PNO1 (UniProt Q9NRX1)	1.09 ± 0.17
UniProt Q9H0F6 and related entries	0.948 ± 0.24
UniProt Q9H3H3-2|Q9H3H3-3|Q9H3H3	0.938 ± 0.03
UniProt Q9H6U6 and related entries	0.977 ± 0.029
UniProt Q9NQ88	0.914 ± 0.088
KIF15 (UniProt Q9NS87)	1.01 ± 0.052
JPH1 (UniProt Q9HDC5)	1.08 ± 0.18
UniProt Q9HC38-2|F6TLX2	0.968 ± 0.026
MOV10 (UniProt Q9HCE1)	1.2 ± 0.19
UniProt Q9C0F1	1.03 ± 0.071

Same assay, conditions: concentration: 1mM

Target	NP40-soluble protein abundance
RHOF (UniProt Q9HBH0)	1.02 ± 0.11
MRPL44 (UniProt Q9H9J2)	1.25 ± 0.3
FN3KRP (UniProt Q9HA64)	0.927 ± 0.032
SFXN1 (UniProt Q9H9B4)	0.935 ± 0.07
ANLN (UniProt Q9NQW6)	0.949 ± 0.072
EXOSC4 (UniProt Q9NPD3)	0.996 ± 0.015
UniProt Q9C035 and related entries	1.02 ± 0.019
MRPL40 (UniProt Q9NQ50)	1.31 ± 0.35
CENPH (UniProt Q9H3R5)	0.987 ± 0.068
UniProt Q9NR28 and related entries	0.972 ± 0.041
UniProt Q9C0I1 and related entries	0.989 ± 0.18
UniProt Q9H8E8 and related entries	1.12 ± 0.064
SCAF1 (UniProt Q9H7N4)	1.16 ± 0.014
BOLA2 (UniProt Q9H3K6)	0.972 ± 0.067
UniProt Q9NPL8	0.967 ± 0.05
NCOA5 (UniProt Q9HCD5)	1.084 ± 0.0085
UniProt Q9H7Z6	1.07 ± 0.015
KIF13B (UniProt Q9NQT8)	1.041 ± 0.0075

Target	NP40-soluble protein abundance
WDR11 (UniProt Q9BZH6)	1.19 ± 0.28
PNN (UniProt Q9H307)	1.26 ± 0.15
LSG1 (UniProt Q9H089)	1.05 ± 0.06
UniProt Q9C0E8 and related entries	0.938 ± 0.042
YTHDC2 (UniProt Q9H6S0)	1.28 ± 0.26
UniProt Q9NPG3 and related entries	1.03 ± 0.028
DEF6 (UniProt Q9H4E7)	0.954 ± 0.059
UniProt Q9BZL1	0.983 ± 0.06
PNO1 (UniProt Q9NRX1)	1.14 ± 0.19
UniProt Q9H0F6 and related entries	1.09 ± 0.2
UniProt Q9H3H3-2|Q9H3H3-3|Q9H3H3	0.938 ± 0.08
UniProt Q9H6U6 and related entries	1 ± 0.043
UniProt Q9NQ88	0.884 ± 0.078
KIF15 (UniProt Q9NS87)	0.978 ± 0.05
JPH1 (UniProt Q9HDC5)	1.09 ± 0.25
UniProt Q9HC38-2|F6TLX2	0.925 ± 0.056
MOV10 (UniProt Q9HCE1)	1.1 ± 0.16
UniProt Q9C0F1	1.06 ± 0.021

Same assay, conditions: concentration: 2mM

Target	NP40-soluble protein abundance
RHOF (UniProt Q9HBH0)	1.05 ± 0.13
MRPL44 (UniProt Q9H9J2)	1.36 ± 0.34
FN3KRP (UniProt Q9HA64)	0.913 ± 0.061
SFXN1 (UniProt Q9H9B4)	0.917 ± 0.08
ANLN (UniProt Q9NQW6)	0.93 ± 0.084
EXOSC4 (UniProt Q9NPD3)	0.994 ± 0.11
UniProt Q9C035 and related entries	1.04 ± 0.023
MRPL40 (UniProt Q9NQ50)	1.41 ± 0.34
CENPH (UniProt Q9H3R5)	0.978 ± 0.0098
UniProt Q9NR28 and related entries	0.963 ± 0.075
UniProt Q9C0I1 and related entries	0.984 ± 0.08
UniProt Q9H8E8 and related entries	1.05 ± 0.17
SCAF1 (UniProt Q9H7N4)	1.21 ± 0.06
BOLA2 (UniProt Q9H3K6)	0.857 ± 0.09
UniProt Q9NPL8	0.946 ± 0.041
NCOA5 (UniProt Q9HCD5)	1.22 ± 0.043
UniProt Q9H7Z6	1.07 ± 0.038
KIF13B (UniProt Q9NQT8)	1.02 ± 0.025

Target	NP40-soluble protein abundance
WDR11 (UniProt Q9BZH6)	1.09 ± 0.16
PNN (UniProt Q9H307)	1.17 ± 0.1
LSG1 (UniProt Q9H089)	1.05 ± 0.033
UniProt Q9C0E8 and related entries	0.941 ± 0.12
YTHDC2 (UniProt Q9H6S0)	1.28 ± 0.19
UniProt Q9NPG3 and related entries	1.09 ± 0.044
DEF6 (UniProt Q9H4E7)	0.92 ± 0.085
UniProt Q9BZL1	1.0075 ± 0.00098
PNO1 (UniProt Q9NRX1)	1.15 ± 0.28
UniProt Q9H0F6 and related entries	1.07 ± 0.12
UniProt Q9H3H3-2|Q9H3H3-3|Q9H3H3	0.977 ± 0.044
UniProt Q9H6U6 and related entries	0.978 ± 0.03
UniProt Q9NQ88	0.85 ± 0.1
KIF15 (UniProt Q9NS87)	0.964 ± 0.05
JPH1 (UniProt Q9HDC5)	1.13 ± 0.23
UniProt Q9HC38-2|F6TLX2	0.87 ± 0.071
MOV10 (UniProt Q9HCE1)	1.24 ± 0.28
UniProt Q9C0F1	0.9986 ± 0.0032
